In paper PMC12730940:

Assays:
[1] = molecular target: cardiac troponin I (cTnI) (UniProt P19429); test: lateral flow dual-aptamer sandwich; settings: 10 mM Tris-HCl, 1% Tween-20, 62.5-2000 ng/mL cTnI, 10 mM Tris-HCl pH 8.0, 1% (v/v) Tween-20, room temperature, 10 min, single-stranded DNA
[2] = molecular target: human serum albumin (HSA) (human) (UniProt P02768); test: lateral flow dual-aptamer sandwich; settings: 1 ug/mL, no significant sandwich signal (needs both aptamers), 10 mM Tris-HCl pH 8.0, 1% (v/v) Tween-20, room temperature, 10 min, single-stranded DNA

| Sequence | binding result ([1]; capture of AuNP@Tro4-cTnI, 5' biotin, on streptavidin, label: biotin) | binding result ([2]; 5' biotin, on streptavidin, label: biotin) | binding result ([1]; sandwich with Tro6 at T line, 3' SH C6, on gold nanoparticles, label: AuNP) | binding result ([2]; 3' SH C6, on gold nanoparticles, label: AuNP) |
| --- | --- | --- | --- | --- |
| CGCATGCCAAACGTTGCCTCATAGTTCCCTCCCCGTGTCC [Tro6 (T line)] | binds | no binding | – | – |
| CGTGCAGTACGCCAACCTTTCTCATGCGCTGCCCCTCTTATTTTTTTTTTTTTTTTTTTT [Tro4] | – | – | binds | no binding |

For some of these results: A negative result means that nothing was seen under these conditions. At least one verdict was read from the data and is not stated in words by the source. For some of these results: For at least one entry, the source does not settle the construct or the ends of the probe.
